The list is a part of this screen's results and no random one: it gathers tests that were run many times, whatever their T/C, doses with no T/C, and many T/C values between a quarter and a half above the control. Further doses and runs are listed elsewhere. T/C is the treated group as % of the vehicle group. Some doses have a count of surviving animals in place of a T/C: the source holds a T/C of zero for them, seemingly a mark for toxic or unscored doses. Some survivor counts are full or nearly so, which does not show that the dose was tolerated: the source hardly ever lists a survival T/C far under the control, and the zero likely stands for such cases as well. Counts of survivors are from the toxicity check (mostly the fifth day) where no day follows; animals may have died later. Schedule codes are those of the source, read here as Q, the interval in days (D) or hours (H), X, the number of doses. Some entries were tested several times; the values are given in rising order. Where survival is the endpoint, this PubChem deposit counts one and a half times the control or more as active, and values a quarter to a half above the control carry no call in these data; other NCI protocols may use other cut-offs. Some T/C values carry the count of animals alive at the toxicity check (mostly the fifth day); without a count, all were alive then. *1 amine or outer side, *2 acyl side, *3 side chain or, on linkers, in order; H or OH if unused. Where a SMILES comes first, the peptide text is derived from it. Bridges are numbered along the chain shown (N, C = ends). Roman numbers before positions name the chains, in order. [ ]: non-standard residue; d: D form. Actinocin(9to1) = Cc1c2oc3c(C)ccc(C(=O)[*:1])c3nc-2c(C(=O)[*:2])c(N)c1=O; aThr = C[C@H](O)[C@H](N)C(=O)O; NMeV = CN[C@H](C(=O)O)C(C)C; Sar = CNCC(=O)O
Tested on: B6C3F1 mice, B16 melanoma ip, median survival T/C
Test: NCI In Vivo Anticancer Drug Screen. Data for tumor model B16 Melanoma (intraperitoneal) in B6C3F1 mice
Conditions: T/C endpoint: median survival time, higher T/C = longer survival
How it was run: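 Values are T/C ratios: the measurement in treated animals divided by that in vehicle-treated controls, using survival or tumor size in mice carrying transplantable tumors.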

## O=CC(NC(=O)N(CCCl)N=O)C(O)C(O)C(O)CO (stereo unspecified)
dose: 1.87 mg/kg/injection, schedule: Q01DX005 (ip), vehicle: saline
  T/C: 131 % of control [9 of 10 alive on day 9]
dose: 1.87 mg/kg/injection, schedule: Q01DX009 (ip), vehicle: saline
  T/C: 156 [9 of 10 alive], 162, 165, 169 [9 of 10 alive], 175, 188 % of control [8 of 10 alive]
dose: 3.75 mg/kg/injection, schedule: Q01DX001 (ip), vehicle: saline
  T/C: 129 % of control
dose: 3.75 mg/kg/injection, schedule: Q01DX005 (ip), vehicle: saline
  T/C: 141 % of control
dose: 3.75 mg/kg/injection, schedule: Q01DX009 (ip), vehicle: saline
  T/C: 193, 213, 217, 218, 224, 273 % of control
dose: 7.5 mg/kg/injection, schedule: Q01DX001 (ip), vehicle: saline
  T/C: 131 % of control
dose: 7.5 mg/kg/injection, schedule: Q01DX005 (ip), vehicle: saline
  survivor count: 9 of 10 on day 9
dose: 7.5 mg/kg/injection, schedule: Q01DX009 (ip), vehicle: saline
  T/C: 117 [9 of 10 alive], 181, 189, 209, 340, 372 % of control [9 of 10 alive]
dose: 15.0 mg/kg/injection, schedule: Q01DX001 (ip), vehicle: saline
  T/C: 149 % of control
dose: 15.0 mg/kg/injection, schedule: Q01DX005 (ip), vehicle: saline
  survivor count: 9 of 10 on day 9
dose: 15.0 mg/kg/injection, schedule: Q01DX009 (ip), vehicle: saline
  survivor count: 10 of 10
dose: 30.0 mg/kg/injection, schedule: Q01DX001 (ip), vehicle: saline
  survivor count: 10 of 10 on day 9
dose: 30.0 mg/kg/injection, schedule: Q01DX005 (ip), vehicle: saline
  survivor count: 9 of 10 on day 9
dose: 30.0 mg/kg/injection, schedule: Q01DX009 (ip), vehicle: saline
  survivor count: 7 of 10, 9 of 10, 10 of 10
dose: 60.0 mg/kg/injection, schedule: Q01DX001 (ip), vehicle: saline
  survivor count: 8 of 10 on day 9

## Cc1c2oc3c(C)ccc(C(=O)N[C@@H]4C(=O)N[C@H](C(C)C)C(=O)N5CCC[C@H]5C(=O)N(C)CC(=O)N(C)[C@@H](C(C)C)C(=O)O[C@H]4C)c3nc-2c(C(=O)N[C@@H]2C(=O)N[C@H](C(C)C)C(=O)N3CCC[C@H]3C(=O)N(C)CC(=O)N(C)[C@@H](C(C)C)C(=O)O[C@H]2C)c(N)c1=O (I: [aThr][dV]P[Sar][NMeV] / II: [aThr][dV]P[Sar][NMeV]; ester I:1-I:C, II:1-II:C; linker I:N-II:N via Actinocin(9to1))
dose: 12.5 micrograms/kg/injection, schedule: Q01DX009 (ip), vehicle: saline + alcohol, evaluated on day 45
  T/C: 132 % of control
dose: 12.5 micrograms/kg/injection, schedule: Q01DX009 (ip), vehicle: saline + alcohol, evaluated on day 60
  T/C: 142 % of control
dose: 12.5 micrograms/kg/injection, schedule: Q01DX009 (ip), vehicle: water
  T/C: 136 % of control
dose: 25.0 micrograms/kg/injection, schedule: Q01DX009 (ip), vehicle: saline + alcohol, evaluated on day 40
  T/C: 130 % of control
dose: 25.0 micrograms/kg/injection, schedule: Q01DX009 (ip), vehicle: saline + alcohol, evaluated on day 45
  T/C: 127 % of control
dose: 25.0 micrograms/kg/injection, schedule: Q01DX009 (ip), vehicle: saline + alcohol, evaluated on day 60
  T/C: 147 % of control
dose: 50.0 micrograms/kg/injection, schedule: Q01DX009 (ip), vehicle: saline + alcohol, evaluated on day 40
  T/C: 136 % of control
dose: 50.0 micrograms/kg/injection, schedule: Q01DX009 (ip), vehicle: saline + alcohol, evaluated on day 45
  T/C: 137 % of control
dose: 100.0 micrograms/kg/injection, schedule: Q01DX009 (ip), vehicle: saline + alcohol
  survivor count: 10 of 10
dose: 200.0 micrograms/kg/injection, schedule: Q01DX009 (ip), vehicle: saline + alcohol
  survivor count: 10 of 10
dose: 200.0 micrograms/kg/injection, schedule: Q01DX009 (ip), vehicle: water
  survivor count: 10 of 10
dose: 400.0 micrograms/kg/injection, schedule: Q01DX009 (ip), vehicle: saline + alcohol
  survivor count: 7 of 10 and 10 of 10
dose: 400.0 micrograms/kg/injection, schedule: Q01DX009 (ip), vehicle: water
  survivor count: 9 of 10

## COC1=CC(=O)C(OC)=C(OC)C1=O
dose: 25.0 mg/kg/injection, schedule: Q01DX009 (ip), vehicle: saline with Tween-80
  survivor count: 4 of 10
dose: 50.0 mg/kg/injection, schedule: Q01DX009 (ip), vehicle: saline with Tween-80
  survivor count: 4 of 10
dose: 100.0 mg/kg/injection, schedule: Q01DX009 (ip), vehicle: saline with Tween-80
  survivor count: 1 of 10

Source: PubChem BioAssay AID200 (DTP/NCI, 2004)
